Test results reported in US20220281966A1.
No constants are given. Whether binding was seen depends on the method and setting. Some entries that bind do so weakly or less than the wild type.

By UniProt entry, the sequences of proteins in these tests, tags left out. Residues count along the entry.
UniProt P35225, residues 35-146: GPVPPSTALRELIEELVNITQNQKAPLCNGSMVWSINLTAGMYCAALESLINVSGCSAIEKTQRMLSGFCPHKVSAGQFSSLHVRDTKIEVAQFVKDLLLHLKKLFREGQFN

Target: antibody 623
Assay: competition ELISA, titrated IL-13 pre-incubated with antibody, plate coated with IL-13RbFc

binding: binds
Substance: IL-13 (human IL-13, preparation not specified) (from UniProt P35225 35-146) (ligand)
